# Reference: publication PMC7819943, “Rice protein-binding microarrays: a tool to detect cis-acting elements near promoter regions in rice”
# The chains behind the UniProt entries cited, without tags or fusion partners.
# UniProt Q0JBA9, entry or part of it: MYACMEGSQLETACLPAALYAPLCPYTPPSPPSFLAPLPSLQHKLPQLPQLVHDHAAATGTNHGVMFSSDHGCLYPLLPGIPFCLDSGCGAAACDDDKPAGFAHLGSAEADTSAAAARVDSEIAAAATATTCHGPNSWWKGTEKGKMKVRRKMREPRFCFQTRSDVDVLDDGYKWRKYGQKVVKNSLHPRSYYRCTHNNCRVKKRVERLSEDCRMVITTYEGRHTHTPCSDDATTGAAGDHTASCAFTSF
# Some of the results follow.
# Biological target: OsWRKY34 (Oryza sativa, UniProt Q0JBA9 1-250)
# Test: protein-binding microarray (RPBM); PBS, 2% BSA, 51.3 ng/ul salmon testes DNA, 50 uM zinc acetate, 200 nM TF, 25 C, 1 h; high values mean tight binding
# Settings: protein: recombinant; tags: N-terminal polyhistidine and DsRed monomer fusion (pET32a); label: CyDye5-dUTP incorporated in the synthesized complementary strand; 3' TTTTT single-stranded linker to array surface; dsDNA, one strand shown
# Method in brief: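 The binding signal is fluorescence intensity per array feature (arbitrary units). Readings came from an Axon 4000B scanner after a washed, 2% BSA-blocked, double-stranded custom Agilent array had been incubated for 1 h at 25 °C with 200 nM protein and 50 µM zinc acetate. The protein was a Ni–NTA-purified transcription factor fused N-terminally to polyhistidine and DsRed, expressed in E. coli BL21-CodonPlus.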
row,Sequence,binding signal
1,AATACTTAATTAATCATACGTTAATGGCTCATCTCGTTTTCGGAGTCACCTAGTGCAG,9320 fluorescence intensity (a.u.)
2,CCCCGTGTCCGACGTTTGACCGTTCGTTTTATTTAAAAAACGGAGTCACCTAGTGCAG,8440 fluorescence intensity (a.u.)
3,ATAGTTAATATGTCTATCCCGTTACAACGGGATCCTGTTTCGGAGTCACCTAGTGCAG,8440 fluorescence intensity (a.u.)
4,TACTCATGCTGTGTTTTTCCCCTTTGCTACCTCACAGTTCCGGAGTCACCTAGTGCAG,13600 fluorescence intensity (a.u.)
5,GCCTCGCGTCCCCGCGATTTCTCACTCGCCATCGCCGACGCGGAGTCACCTAGTGCAG,8270 fluorescence intensity (a.u.)
6,CTAGTAGTAGCTCGTAATCTAGGCTAGTAGCATCCCGTACCGGAGTCACCTAGTGCAG,8650 fluorescence intensity (a.u.)
7,TCCTTTTTTTTCAGTATCTTTTTTTTTTTGCGCCAAAGTCCGGAGTCACCTAGTGCAG,8330 fluorescence intensity (a.u.)
8,TTGGCTATCTTCTCTCCTGTATTGACCCATAATTCTGCAGCGGAGTCACCTAGTGCAG,8480 fluorescence intensity (a.u.)
9,AGAAGCCCCACCGCTTCCGCCCCGGCACCGTCGCGCTCCGCGGAGTCACCTAGTGCAG,8790 fluorescence intensity (a.u.)
10,CGTTCGTTCTCTCTCCATCCATTCACGCGATTGACGCGAGCGGAGTCACCTAGTGCAG,10100 fluorescence intensity (a.u.)
11,TTTCTATTGCATTAGTTAGGCTACTTGTTTTAAACTATTCCGGAGTCACCTAGTGCAG,12500 fluorescence intensity (a.u.)
12,GGAAGTTCTGAGTCAGGCCCCATCATCTCATTGCTGTCTACGGAGTCACCTAGTGCAG,10900 fluorescence intensity (a.u.)
13,GGGCCTTACTAAATGATTCAGCCCATGGGCCCTACAACACCGGAGTCACCTAGTGCAG,9220 fluorescence intensity (a.u.)
14,TTTGAGGTTTTACTTACAACTTTTGACCACTCGTCTTATTCGGAGTCACCTAGTGCAG,10000 fluorescence intensity (a.u.)
15,GGAGCTAGGCCCAACATCCCAACTGTCACTACTTCATCCACGGAGTCACCTAGTGCAG,9340 fluorescence intensity (a.u.)
16,CTCCCAGCGCAGTGGCTTCGCCCCACGCCCTACTGTTTTACGGAGTCACCTAGTGCAG,9070 fluorescence intensity (a.u.)
17,ACAATGGCACGGTCTACAAAATATATTTTTGACCTTATTTCGGAGTCACCTAGTGCAG,8440 fluorescence intensity (a.u.)
18,TGTGCCATGAAATTTTGTTTGATTCAGTTTAATATATACTCGGAGTCACCTAGTGCAG,9120 fluorescence intensity (a.u.)
19,ATTGATGGTTTTATTTTTTTGCGAAGGGGTGGTGACTGGACGGAGTCACCTAGTGCAG,9610 fluorescence intensity (a.u.)
20,GTTCGGCGCAACTTGCTTTTTTTTTTTCCTTTTCTTTCTTCGGAGTCACCTAGTGCAG,10500 fluorescence intensity (a.u.)
21,CCTCCCGTCCTCACCGCCGCCGCCGCCTCACCAGCGCCACCGGAGTCACCTAGTGCAG,14300 fluorescence intensity (a.u.)

row,Sequence,binding signal
1,GGCCCTACTACCACAATCCCATGCTCGCCGCCTAGAGAAGCGGAGTCACCTAGTGCAG,10200 fluorescence intensity (a.u.)
2,TGTTGTCTTTCGTTTTTCCGCTGCATTTACGTAAGACTTTCGGAGTCACCTAGTGCAG,9340 fluorescence intensity (a.u.)
3,AATCTGTACCCATAAGCCACCACGTTGACCATAATGATTTCGGAGTCACCTAGTGCAG,13000 fluorescence intensity (a.u.)
4,AGTTCCATAGGCTAAAACTCCACCAACTCACATGCTCTCACGGAGTCACCTAGTGCAG,8310 fluorescence intensity (a.u.)
5,CTCTCTCCTCGTCTTCCTCGCGCTGACTCTTCTCCTCCTCCGGAGTCACCTAGTGCAG,8620 fluorescence intensity (a.u.)
6,CCGAGAATGGGTGGTGGGTGGCCTGTGAGTGGCTACCGGCCGGAGTCACCTAGTGCAG,9250 fluorescence intensity (a.u.)
7,CGGTGGCCGGTACACGCCCATCTGCTTCCTGTTCACACGACGGAGTCACCTAGTGCAG,8050 fluorescence intensity (a.u.)
8,TGGCGCATTGTCAGCGTGTGCCTTGGCCAAATTTACCCACCGGAGTCACCTAGTGCAG,8150 fluorescence intensity (a.u.)
9,GGTTGAGCGCCGCGGTCATTGCGTGCACTTGCGGTCGAGCCGGAGTCACCTAGTGCAG,8830 fluorescence intensity (a.u.)
10,AAACGATTTCTTTTTTTTTTTTTGGTTATGCAGCAACTATCGGAGTCACCTAGTGCAG,8790 fluorescence intensity (a.u.)
11,TAATTTGTGCTCCACTATACACTTTGACTCAACCCAATTTCGGAGTCACCTAGTGCAG,9080 fluorescence intensity (a.u.)
12,ACACCCCGGACTACTTTCGCCGTTCTAAAAAAACATAACCCGGAGTCACCTAGTGCAG,8400 fluorescence intensity (a.u.)
13,TCCCTTGCGCGGCCATTGCTCTCATCCTCGAACCCTTACCCGGAGTCACCTAGTGCAG,12100 fluorescence intensity (a.u.)
14,CTGTAACTCTCTATCTCTGTGTATTATTTGTGTATTTTGACGGAGTCACCTAGTGCAG,13000 fluorescence intensity (a.u.)
15,TTAATATATCCTGTTTTTTTTTCATCATTCTCTTTCTTTCCGGAGTCACCTAGTGCAG,10200 fluorescence intensity (a.u.)
16,CTCCATATCTGGTTTTTGGGTTGAATGAATCAATTTGGGGCGGAGTCACCTAGTGCAG,8790 fluorescence intensity (a.u.)
17,CTGTCAGAATCCTGTGCTTTTCCTATTCCTTTATTTTTTCCGGAGTCACCTAGTGCAG,12800 fluorescence intensity (a.u.)
18,GACATCACCACAAATCAACCCCTTGCAACCATTTCAATCACGGAGTCACCTAGTGCAG,12700 fluorescence intensity (a.u.)
19,GCTTGAAGACCATCTATCCATTGTTGTCGCATTGTATCATCGGAGTCACCTAGTGCAG,8140 fluorescence intensity (a.u.)
20,ATCCCGTTGCGTCCCATTTTCCTCGCCCTCGTCGCTAGTTCGGAGTCACCTAGTGCAG,11200 fluorescence intensity (a.u.)
21,TGCCTGTATTCTCTATGCTGATCAGCTTACGTTGGCATGTCGGAGTCACCTAGTGCAG,8640 fluorescence intensity (a.u.)

# Seven entries from above, set out differently.
row | Sequence | binding signal
13 | TCCCTTGCGCGGCCATTGCTCTCATCCTCGAACCCTTACCCGGAGTCACCTAGTGCAG | 12100 fluorescence intensity (a.u.)
14 | CTGTAACTCTCTATCTCTGTGTATTATTTGTGTATTTTGACGGAGTCACCTAGTGCAG | 13000 fluorescence intensity (a.u.)
15 | TTAATATATCCTGTTTTTTTTTCATCATTCTCTTTCTTTCCGGAGTCACCTAGTGCAG | 10200 fluorescence intensity (a.u.)
16 | CTCCATATCTGGTTTTTGGGTTGAATGAATCAATTTGGGGCGGAGTCACCTAGTGCAG | 8790 fluorescence intensity (a.u.)
17 | CTGTCAGAATCCTGTGCTTTTCCTATTCCTTTATTTTTTCCGGAGTCACCTAGTGCAG | 12800 fluorescence intensity (a.u.)
18 | GACATCACCACAAATCAACCCCTTGCAACCATTTCAATCACGGAGTCACCTAGTGCAG | 12700 fluorescence intensity (a.u.)
19 | GCTTGAAGACCATCTATCCATTGTTGTCGCATTGTATCATCGGAGTCACCTAGTGCAG | 8140 fluorescence intensity (a.u.)
